Measurements taken from the supplement of paper PMC10689618.
This is one part of the list. Repeats are few or missing, and single values can be far off.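 Primary human fetal astrocytes engulfed labelled rat cortical synaptosomes, measured as a red/green ratio corrected for calcein live-cell signal and scaled to the plate median. Toxicity meant calcein falling over 30%; decreased phagocytosis meant below 70% of median above 5 µM.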

Key:
[1] = system: Human fetal astrocytes; assay: loss of total cells relative to no-compound high-control median (toxicity); higher = more toxic (fewer cells); settings: 24 h
[2] = system: Human fetal astrocytes; assay: synaptosome phagocytosis (pHrodo/calcein intensity ratio) relative to plate median of data wells; higher = more phagocytosis; settings: 24 h

| SMILES | loss of total cells ([1]; 1.39 µM) [%] | loss of total cells ([1]; 2.78 µM) [%] | loss of total cells ([1]; 5.56 µM) [%] | loss of total cells ([1]; 11.11 µM) [%] | loss of total cells ([1]; 22.22 µM) [%] | synaptosome phagocytosis ([2]; 1.39 µM) [%] | synaptosome phagocytosis ([2]; 2.78 µM) [%] | synaptosome phagocytosis ([2]; 5.56 µM) [%] | synaptosome phagocytosis ([2]; 11.11 µM) [%] | synaptosome phagocytosis ([2]; 22.22 µM) [%] |
| --- | --- | --- | --- | --- | --- | --- | --- | --- | --- | --- |
| Nc1ccc(S(=O)(=O)Nc2cnc3ccccc3n2)cc1 | -11.6 | 4 | -3.3 | -10.2 | -24.4 | 107 | 85.2 | 80.7 | 90.8 | 96.4 |
| CO[C@H]1C[C@@H]2CC[C@@H](C)[C@@](O)(O2)C(=O)C(=O)N2CCCC[C@H]2C(=O)O[C@H]([C@H](C)C[C@@H]2CC[C@@H](O)[C@H](OC)C2)CC(=O)[C@H](C)/C=C(\C)[C@@H](O)[C@@H](OC)C(=O)[C@H](C)C[C@H](C)/C=C/C=C/C=C/1C | -8.9 | 30.2 | 8.1 | 49.5 | 4.7 | 60.6 | 147 | 86.7 | 145 | 112 |
| COc1ccc(NS(=O)(=O)c2ccc(N)cc2)nn1 | -25.7 | -0.3 | -3.9 | -13.3 | 12.5 | 119 | 98.3 | 90.2 | 98.7 | 120 |
| CC(=O)N(c1onc(C)c1C)S(=O)(=O)c1ccc(N)cc1 | -18.5 | -23 | 10.6 | 23.3 | -1.6 | 131 | 99.4 | 108 | 133 | 92.9 |
| Cc1cc(O)c(C=O)c2c1C(=O)Oc1c(COC(=O)/C=C/C(=O)O)c(O)c(C(=O)O)c(C)c1O2 | -23.6 | -3.3 | 37.4 | 45.2 | 10 | 118 | 109 | 118 | 132 | 127 |
| CCCc1cc(=O)[nH]c(=S)[nH]1 | -12.8 | -18 | -28.6 | -14.7 | 14.9 | 109 | 104 | 103 | 88.8 | 119 |
| CC(=O)Oc1cc(C)c2c(c1C(OC(C)=O)OC(C)=O)Oc1c(c(C)c(OC(C)=O)c3c1C(OC(C)=O)OC3=O)OC2=O (stereo not given) | -3.3 | 21.9 | -3.8 | 33.5 | 6.3 | 117 | 104 | 107 | 115 | 81.4 |
| COC(=O)N/N=C/c1c[n+]([O-])c2ccccc2[n+]1[O-] | 7.6 | -8 | -13.7 | 32.9 | 1.1 | 110 | 105 | 87.9 | 102 | 117 |
| COc1ccc(OC)c(C(O)CNC(=O)CN)c1 (stereo not given) | 29.8 | -25.4 | -6.2 | 38.4 | 12.1 | 157 | 122 | 114 | 149 | 115 |
| CC(C(=O)O)c1ccc2c(c1)[nH]c1ccc(Cl)cc12 (stereo not given) | -4.1 | -5.8 | 5.1 | 5.5 | 16.4 | 75.3 | 110 | 114 | 117 | 134 |
| O=C(O)P(=O)(O)O | 26.6 | -36.5 | 18 | 31.1 | -4 | 136 | 88.1 | 114 | 112 | 90.2 |
| CCN(CC)C(=O)N1CCN(C)CC1 | -10.4 | -24.7 | -16.7 | 4.3 | -42.2 | 127 | 82.7 | 99.7 | 79.6 | 78.8 |
| COc1c2ccoc2nc2c(OC)c(OCC(O)C(C)(C)O)ccc12 (stereo not given) | -27.9 | -11.2 | -1.5 | 9.5 | -14.8 | 69.8 | 115 | 75.9 | 98.5 | 81.2 |
| N[C@@H](CCC(=O)N[C@@H](CS)C(=O)NCC(=O)O)C(=O)O | 6.1 | 6.9 | 2.9 | -4.6 | -9.8 | 119 | 122 | 110 | 126 | 116 |
| Cc1cc(NS(=O)(=O)c2ccc(N)cc2)no1 | 4.5 | -30.2 | -5.6 | 6.6 | -21 | 130 | 125 | 96.9 | 111 | 94.8 |
| Cc1cc(C)cc(OCC2CNC(=O)O2)c1 (stereo not given) | -5.8 | -5.8 | -0.9 | 16.4 | 4.5 | 110 | 109 | 90.1 | 101 | 111 |
| Cc1coc2c1C(=O)C(=O)c1c-2ccc2c1CCCC2(C)C | -7.4 | 4.7 | 15.4 | 0.7 | 15.6 | 103 | 107 | 131 | 60 | 135 |
| O=C(Cn1ccnc1[N+](=O)[O-])NCCO | -35.5 | -40.5 | -20.5 | 22 | 3.4 | 106 | 104 | 88.4 | 88.5 | 121 |
| c1ccc2c(CC3=NCCN3)cccc2c1 | -59.8 | -25.3 | -4.5 | -19.5 | 1.1 | 108 | 108 | 101 | 83.9 | 97.9 |

Only synaptosome phagocytosis ([2]; 11.11 µM) [%] and loss of total cells ([1]; 5.56 µM) [%], for 2 of the compounds above:
SMILES	synaptosome phagocytosis ([2]; 11.11 µM) [%]	loss of total cells ([1]; 5.56 µM) [%]
CC(C(=O)O)c1ccc2c(c1)[nH]c1ccc(Cl)cc12 (stereo not given)	117	5.1
c1ccc2c(CC3=NCCN3)cccc2c1	83.9	-4.5

(listing goes on)

| SMILES | loss of total cells ([1]; 1.39 µM) [%] | loss of total cells ([1]; 2.78 µM) [%] | loss of total cells ([1]; 5.56 µM) [%] | loss of total cells ([1]; 11.11 µM) [%] | loss of total cells ([1]; 22.22 µM) [%] | synaptosome phagocytosis ([2]; 1.39 µM) [%] | synaptosome phagocytosis ([2]; 2.78 µM) [%] | synaptosome phagocytosis ([2]; 5.56 µM) [%] | synaptosome phagocytosis ([2]; 11.11 µM) [%] | synaptosome phagocytosis ([2]; 22.22 µM) [%] |
| --- | --- | --- | --- | --- | --- | --- | --- | --- | --- | --- |
| COc1ccc([C@@H]2CC(=O)c3c(O)cc(O)cc3O2)cc1O | -12.3 | -4.7 | -5.1 | 2.7 | 10.4 | 85.4 | 86.1 | 105 | 110 | 104 |
| COc1ccc(C(=O)c2ccccc2)c(O)c1 | -0.8 | -4 | 2.7 | 8.6 | 12.5 | 83.2 | 112 | 94.7 | 88.8 | 78 |
| C=C1C2CC[C@@]3(C)[C@H](c4ccoc4)OC(=O)C[C@]13O[C@H]1CC(=O)C(C)(C)[C@H](C(O)C(=O)OC)[C@@]21C (stereo not given in full) | -24.3 | 4.7 | -15.3 | 1.3 | 10.7 | 97.3 | 114 | 84 | 113 | 106 |
| CC1(C)C(=O)C=CC2(C)C1C=CC1(C)C2CCC2(C)C(c3ccoc3)OC(=O)C3OC312 (stereo not given) | -18.5 | -4 | 15.3 | 7.7 | 12.2 | 95.9 | 104 | 79.2 | 60.2 | 63.1 |
| O=C(O)c1cc(O)c2c(c1)[C@H]([C@H]1c3cc(C(=O)O)cc(O)c3C(=O)c3c(O[C@@H]4O[C@H](CO)[C@@H](O)[C@H](O)[C@H]4O)cccc31)c1cccc(O[C@@H]3O[C@H](CO)[C@@H](O)[C@H](O)[C@H]3O)c1C2=O | -11.6 | -16.8 | 11.7 | -7 | 9.6 | 93.9 | 126 | 119 | 102 | 108 |
| NC[C@H]1O[C@H](O[C@H]2[C@H](O)[C@@H](O[C@H]3O[C@H](CO)[C@@H](O)[C@H](N)[C@H]3O)[C@H](N)C[C@@H]2N)[C@H](N)[C@@H](O)[C@@H]1O | -16.3 | -22 | -13.2 | 0.9 | -32.5 | 96.7 | 122 | 90.4 | 121 | 72.3 |
| C=C(C)CCCC(C)CCOC(C)=O (stereo not given) | -28.7 | -1.1 | 11 | 5.4 | 13.3 | 104 | 123 | 100 | 97.2 | 117 |
| C[C@]12CC[C@@H]3c4ccc(OS(=O)(=O)O)cc4CC[C@H]3[C@@H]1CCC2=O | -45.2 | -27 | -4.3 | 0.3 | 14.6 | 97.3 | 102 | 127 | 106 | 112 |
| OC[C@@H](O)[C@@H](O[C@@H]1O[C@H](CO)[C@@H](O)[C@H](O)[C@H]1O)[C@H](O)[C@@H](O)CO | -28.7 | -12.6 | -7.3 | -10.8 | -14.1 | 82.1 | 102 | 117 | 82.7 | 109 |
| C=C1CC[C@H](O)C/C1=C/C=C1\CCC[C@]2(C)[C@@H]([C@H](C)/C=C/[C@H](C)C(C)C)CC[C@@H]12 | -10.4 | -22 | -12.5 | 7.8 | -11.9 | 92.8 | 110 | 117 | 95.8 | 59.1 |
| CN[C@@H]1[C@H](O)[C@H](NC)[C@H]2O[C@@]3(O)C(=O)C[C@@H](C)O[C@H]3O[C@@H]2[C@H]1O | 16.9 | -3.1 | -8.4 | 14.7 | -35 | 120 | 100 | 84.4 | 107 | 88.2 |
| CCCCCCCCCCCCCCCCCCOCC(O)CO (stereo not given) | -31.1 | 6.9 | -9.5 | 5.4 | -7.4 | 96.3 | 117 | 91.7 | 160 | 111 |
| CCCCOc1ccc(CC(=O)NO)cc1 | 14.1 | 6.9 | 8.7 | 20.5 | 24.2 | 70.2 | 120 | 90.4 | 104 | 116 |
| C=CC[S+]([O-])C[C@H](N)C(=O)O (mixture of isomers) | -9 | -6.1 | -2.9 | 8.8 | 14.1 | 120 | 108 | 137 | 96.1 | 80.3 |
| COc1ccc(C(=O)c2ccc(O)cc2)c(O)c1O | -22.8 | 8 | -2.3 | 6.5 | 12.2 | 76.2 | 94 | 82.3 | 72.2 | 124 |
| Cc1cc(O)c(C=O)c(O)c1C(=O)O | -18.9 | -9 | 8.1 | 2 | 1.5 | 95 | 65.2 | 146 | 92.1 | 117 |
| C[C@H](CCC(=O)O)[C@H]1CC[C@H]2[C@@H]3CC[C@@H]4C[C@H](O)CC[C@]4(C)[C@H]3C[C@H](O)[C@]12C | -2.5 | 5.3 | -8.4 | 27.7 | -3.3 | 103 | 93 | 105 | 122 | 107 |
| Nc1ccc(O)c(C(=O)O)c1 [5-Amino-2-hydroxy-benzoic acid] | -12 | 12 | -27.5 | 11 | -3.3 | 131 | 123 | 106 | 116 | 135 |
